The values below come from paper PMC11063955, “A multiplexed time-resolved fluorescence resonance energy transfer ultrahigh-throughput screening assay for targeting the SMAD4–SMAD3–DNA complex” (Journal of Molecular Cell Biology, 2023).

No constants are given. Whether binding was seen depends on the method and setting. Some entries that bind do so weakly or less than the wild type. Sequences can lack the tags named with a protein.

In this assay the target is T1, His-tagged SMAD4 WT (Mothers against decapentaplegic homolog 4), Q13485.
T1 chain: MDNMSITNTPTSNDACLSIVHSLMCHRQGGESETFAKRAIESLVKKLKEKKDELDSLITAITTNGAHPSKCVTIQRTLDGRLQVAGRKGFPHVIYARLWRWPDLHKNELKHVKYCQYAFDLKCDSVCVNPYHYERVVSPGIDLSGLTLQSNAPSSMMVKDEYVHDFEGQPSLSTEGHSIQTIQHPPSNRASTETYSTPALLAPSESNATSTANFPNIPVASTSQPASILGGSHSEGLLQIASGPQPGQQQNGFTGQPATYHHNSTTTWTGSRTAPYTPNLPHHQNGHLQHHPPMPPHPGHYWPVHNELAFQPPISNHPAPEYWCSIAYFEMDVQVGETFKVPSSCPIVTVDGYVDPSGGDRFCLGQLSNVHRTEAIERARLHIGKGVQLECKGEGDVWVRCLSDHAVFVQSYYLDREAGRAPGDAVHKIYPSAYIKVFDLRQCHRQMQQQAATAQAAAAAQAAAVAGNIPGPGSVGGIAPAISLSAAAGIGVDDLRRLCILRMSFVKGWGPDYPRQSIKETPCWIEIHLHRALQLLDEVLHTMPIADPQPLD
The assay is described as follows: AlphaScreen or HTRF; multiplexed TR-FRET, PPI read-out (Tb-D2), lysate of HEK293T cells co-expressing His-SMAD4 and Flag-SMAD3 (WT or mutated) with 5'-FAM-SBE4 WT dsDNA; anti-FLAG M2-Tb cryptate and anti-6xHis-D2 antibodies; FRET buffer 20 mM Tris-HCl pH 7.0, 50 mM NaCl, 0.01% NP-40; 4°C for 30 min. The conditions noted are these: remark: other sources report otherwise. A general note: Alpha assays give light when donor and acceptor beads are brought close together.

B1: Flag-tagged SMAD3 WT, P84022 1-425 (natural protein)
chain: MSSILPFTPPIVKRLLGWKKGEQNGQEEKWCEKAVKSLVKKLKKTGQLDELEKAITTQNVNTKCITIPRSLDGRLQVSHRKGLPHVIYCRLWRWPDLHSHHELRAMELCEFAFNMKKDEVCVNPYHYQRVETPVLPPVLVPRHTEIPAEFPPLDDYSHSIPENTNFPAGIEPQSNIPETPPPGYLSEDGETSDHQMNHSMDAGSPNLSPNPMSPAHNNLDLQPVTYCEPAFWCSISYYELNQRVGETFHASQPSMTVDGFTDPSNSERFCLGLLSNVNRNAAVELTRRHIGRGVRLYYIGGEVFAECLSDSAIFVQSPNCNQRYGWHPATVCKIPPGCNLKIFNNQEFAALLAQSVNQGFEAVYQLTRMCTIRMSFVKGWGAEYRRQTVTSTPCWIELHLNGPLQWLDKVLTQMGSPSIRCSSVS
In the case of B1, the binding entry is “binds”.
